Measurements reported in article PMC9703767.

Chains of the proteins cited; added tags and fusions are not shown.
UniProt O35134: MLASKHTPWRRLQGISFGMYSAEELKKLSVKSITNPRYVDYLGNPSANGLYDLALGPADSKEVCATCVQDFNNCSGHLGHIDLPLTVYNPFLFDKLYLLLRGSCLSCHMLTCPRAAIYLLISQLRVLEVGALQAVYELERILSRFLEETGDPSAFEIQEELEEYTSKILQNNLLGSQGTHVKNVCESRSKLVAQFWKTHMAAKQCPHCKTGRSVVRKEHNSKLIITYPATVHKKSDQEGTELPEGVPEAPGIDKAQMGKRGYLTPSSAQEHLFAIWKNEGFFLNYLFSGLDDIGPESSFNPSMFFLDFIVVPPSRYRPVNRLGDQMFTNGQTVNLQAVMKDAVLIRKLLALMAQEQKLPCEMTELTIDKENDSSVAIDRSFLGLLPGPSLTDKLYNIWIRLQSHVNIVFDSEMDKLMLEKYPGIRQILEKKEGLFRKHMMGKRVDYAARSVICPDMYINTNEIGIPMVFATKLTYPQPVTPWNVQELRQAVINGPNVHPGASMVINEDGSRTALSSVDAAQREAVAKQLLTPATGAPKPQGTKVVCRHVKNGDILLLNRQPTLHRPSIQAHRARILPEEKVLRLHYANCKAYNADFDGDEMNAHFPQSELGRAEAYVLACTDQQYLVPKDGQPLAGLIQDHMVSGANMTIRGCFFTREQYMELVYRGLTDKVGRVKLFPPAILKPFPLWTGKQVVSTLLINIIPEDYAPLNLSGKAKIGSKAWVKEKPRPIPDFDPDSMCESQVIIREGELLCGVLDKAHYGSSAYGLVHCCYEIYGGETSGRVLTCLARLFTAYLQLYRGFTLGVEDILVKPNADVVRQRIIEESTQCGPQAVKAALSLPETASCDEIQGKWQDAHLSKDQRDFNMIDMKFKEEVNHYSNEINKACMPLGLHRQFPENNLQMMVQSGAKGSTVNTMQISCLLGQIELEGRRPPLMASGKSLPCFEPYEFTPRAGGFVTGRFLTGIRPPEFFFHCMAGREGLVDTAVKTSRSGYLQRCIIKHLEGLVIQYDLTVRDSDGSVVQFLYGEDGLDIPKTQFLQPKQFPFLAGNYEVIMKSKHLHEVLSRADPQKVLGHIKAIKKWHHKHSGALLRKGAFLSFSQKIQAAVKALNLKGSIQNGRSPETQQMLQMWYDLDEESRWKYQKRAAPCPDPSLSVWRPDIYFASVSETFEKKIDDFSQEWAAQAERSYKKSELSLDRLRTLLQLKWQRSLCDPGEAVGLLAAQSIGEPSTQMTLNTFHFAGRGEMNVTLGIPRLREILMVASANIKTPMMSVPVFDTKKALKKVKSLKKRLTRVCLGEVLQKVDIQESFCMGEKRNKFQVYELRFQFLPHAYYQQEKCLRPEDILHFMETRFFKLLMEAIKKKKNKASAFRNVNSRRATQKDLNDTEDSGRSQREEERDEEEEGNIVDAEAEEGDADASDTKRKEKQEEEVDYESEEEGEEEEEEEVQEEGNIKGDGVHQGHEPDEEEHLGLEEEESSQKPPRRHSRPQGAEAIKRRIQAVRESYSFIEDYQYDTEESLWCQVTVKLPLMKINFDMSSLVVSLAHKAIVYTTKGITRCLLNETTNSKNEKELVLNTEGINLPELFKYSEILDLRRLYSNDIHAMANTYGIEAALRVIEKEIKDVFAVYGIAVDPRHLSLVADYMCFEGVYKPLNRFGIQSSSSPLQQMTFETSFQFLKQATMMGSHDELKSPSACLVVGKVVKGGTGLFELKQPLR
UniProt P52432: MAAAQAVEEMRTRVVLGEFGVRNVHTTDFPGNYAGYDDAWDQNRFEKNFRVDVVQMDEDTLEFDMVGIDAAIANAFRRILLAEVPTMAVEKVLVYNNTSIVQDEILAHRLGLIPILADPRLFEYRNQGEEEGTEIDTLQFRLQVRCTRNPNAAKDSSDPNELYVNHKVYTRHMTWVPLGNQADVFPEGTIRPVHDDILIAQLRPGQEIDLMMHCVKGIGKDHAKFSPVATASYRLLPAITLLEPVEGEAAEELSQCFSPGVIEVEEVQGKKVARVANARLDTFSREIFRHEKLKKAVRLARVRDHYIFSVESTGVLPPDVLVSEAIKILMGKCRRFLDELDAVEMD
UniProt P97304: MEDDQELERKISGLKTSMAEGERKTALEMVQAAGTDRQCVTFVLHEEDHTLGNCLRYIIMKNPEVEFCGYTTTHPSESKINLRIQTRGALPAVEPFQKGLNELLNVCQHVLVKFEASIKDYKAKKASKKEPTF

Biological target: RNA polymerase I largest subunit RPA1 (mouse (endogenous in mESCs)) (UniProt O35134)
Experiment: affinity purification with mass spectrometry; ChIP coupled to quantitative MS for Pol I, Pol II and Pol III; cells fixed with 1% formaldehyde for 10 min, chromatin fractions treated with MNase and sonicated, antibody enrichment

Row | Substance | binding
1 | RPAC1 (from UniProt P52432 1-346) | binds
2 | RPAC2 (from UniProt P97304 1-133) | binds

No constants are given. Whether binding was seen depends on the method and setting. In cells and extracts the contact can be indirect. A yes stands for co-enrichment or nearness to the bait. Other partners may have been found.
